This is an account of results in PMC4847014.

Chains of the proteins cited; added tags and fusions are not shown.
UniProt Q9WV30: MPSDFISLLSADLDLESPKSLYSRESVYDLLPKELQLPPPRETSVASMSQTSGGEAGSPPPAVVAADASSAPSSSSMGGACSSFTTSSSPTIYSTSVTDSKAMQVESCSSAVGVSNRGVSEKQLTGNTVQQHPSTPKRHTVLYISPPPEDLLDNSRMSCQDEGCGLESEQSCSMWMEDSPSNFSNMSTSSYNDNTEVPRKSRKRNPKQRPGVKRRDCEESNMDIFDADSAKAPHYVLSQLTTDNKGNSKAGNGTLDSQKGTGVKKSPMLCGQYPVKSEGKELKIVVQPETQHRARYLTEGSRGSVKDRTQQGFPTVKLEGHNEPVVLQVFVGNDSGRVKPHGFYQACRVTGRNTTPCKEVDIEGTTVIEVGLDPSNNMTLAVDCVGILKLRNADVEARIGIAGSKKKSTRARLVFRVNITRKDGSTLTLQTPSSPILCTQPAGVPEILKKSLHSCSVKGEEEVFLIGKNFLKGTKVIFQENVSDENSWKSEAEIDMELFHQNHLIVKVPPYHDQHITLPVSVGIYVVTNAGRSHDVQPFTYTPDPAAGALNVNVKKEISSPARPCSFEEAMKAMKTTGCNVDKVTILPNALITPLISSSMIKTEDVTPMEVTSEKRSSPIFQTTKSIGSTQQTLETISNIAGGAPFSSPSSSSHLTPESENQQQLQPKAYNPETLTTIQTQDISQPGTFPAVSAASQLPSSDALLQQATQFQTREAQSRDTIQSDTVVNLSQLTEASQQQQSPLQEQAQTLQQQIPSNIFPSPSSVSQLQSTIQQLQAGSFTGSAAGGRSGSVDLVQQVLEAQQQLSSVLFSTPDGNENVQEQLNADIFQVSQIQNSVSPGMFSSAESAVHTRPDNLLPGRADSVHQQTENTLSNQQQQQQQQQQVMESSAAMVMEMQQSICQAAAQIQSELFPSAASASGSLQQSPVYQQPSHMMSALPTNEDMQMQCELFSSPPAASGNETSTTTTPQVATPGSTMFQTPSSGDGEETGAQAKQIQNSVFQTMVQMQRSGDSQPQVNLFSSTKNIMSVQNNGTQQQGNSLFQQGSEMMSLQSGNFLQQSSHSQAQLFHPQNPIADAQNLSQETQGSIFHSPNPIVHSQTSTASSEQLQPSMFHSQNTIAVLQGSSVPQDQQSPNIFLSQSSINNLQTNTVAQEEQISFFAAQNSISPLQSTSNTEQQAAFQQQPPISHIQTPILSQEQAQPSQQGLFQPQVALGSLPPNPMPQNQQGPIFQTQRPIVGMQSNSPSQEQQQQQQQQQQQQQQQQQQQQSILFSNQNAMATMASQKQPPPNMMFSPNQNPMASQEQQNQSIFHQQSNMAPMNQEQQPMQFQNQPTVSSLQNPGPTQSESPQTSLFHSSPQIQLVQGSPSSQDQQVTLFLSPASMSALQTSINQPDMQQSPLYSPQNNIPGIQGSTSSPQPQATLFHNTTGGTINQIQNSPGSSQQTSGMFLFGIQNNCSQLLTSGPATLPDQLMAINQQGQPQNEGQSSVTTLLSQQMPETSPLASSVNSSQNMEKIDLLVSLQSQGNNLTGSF
UniProt Q04206: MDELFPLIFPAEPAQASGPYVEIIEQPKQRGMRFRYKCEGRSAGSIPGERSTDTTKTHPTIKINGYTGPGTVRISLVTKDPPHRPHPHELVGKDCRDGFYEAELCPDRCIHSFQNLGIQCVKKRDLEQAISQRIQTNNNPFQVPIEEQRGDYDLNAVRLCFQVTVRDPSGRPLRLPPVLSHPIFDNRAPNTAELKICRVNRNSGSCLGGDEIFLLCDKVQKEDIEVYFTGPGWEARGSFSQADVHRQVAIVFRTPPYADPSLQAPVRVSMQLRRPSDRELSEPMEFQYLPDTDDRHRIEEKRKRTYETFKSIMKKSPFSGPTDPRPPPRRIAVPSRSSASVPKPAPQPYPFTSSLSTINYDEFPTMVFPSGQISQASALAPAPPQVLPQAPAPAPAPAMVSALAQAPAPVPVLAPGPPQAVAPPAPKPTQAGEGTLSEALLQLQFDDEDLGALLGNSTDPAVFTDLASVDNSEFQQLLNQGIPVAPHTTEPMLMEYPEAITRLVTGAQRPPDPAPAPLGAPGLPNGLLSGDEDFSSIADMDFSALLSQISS
UniProt O94916: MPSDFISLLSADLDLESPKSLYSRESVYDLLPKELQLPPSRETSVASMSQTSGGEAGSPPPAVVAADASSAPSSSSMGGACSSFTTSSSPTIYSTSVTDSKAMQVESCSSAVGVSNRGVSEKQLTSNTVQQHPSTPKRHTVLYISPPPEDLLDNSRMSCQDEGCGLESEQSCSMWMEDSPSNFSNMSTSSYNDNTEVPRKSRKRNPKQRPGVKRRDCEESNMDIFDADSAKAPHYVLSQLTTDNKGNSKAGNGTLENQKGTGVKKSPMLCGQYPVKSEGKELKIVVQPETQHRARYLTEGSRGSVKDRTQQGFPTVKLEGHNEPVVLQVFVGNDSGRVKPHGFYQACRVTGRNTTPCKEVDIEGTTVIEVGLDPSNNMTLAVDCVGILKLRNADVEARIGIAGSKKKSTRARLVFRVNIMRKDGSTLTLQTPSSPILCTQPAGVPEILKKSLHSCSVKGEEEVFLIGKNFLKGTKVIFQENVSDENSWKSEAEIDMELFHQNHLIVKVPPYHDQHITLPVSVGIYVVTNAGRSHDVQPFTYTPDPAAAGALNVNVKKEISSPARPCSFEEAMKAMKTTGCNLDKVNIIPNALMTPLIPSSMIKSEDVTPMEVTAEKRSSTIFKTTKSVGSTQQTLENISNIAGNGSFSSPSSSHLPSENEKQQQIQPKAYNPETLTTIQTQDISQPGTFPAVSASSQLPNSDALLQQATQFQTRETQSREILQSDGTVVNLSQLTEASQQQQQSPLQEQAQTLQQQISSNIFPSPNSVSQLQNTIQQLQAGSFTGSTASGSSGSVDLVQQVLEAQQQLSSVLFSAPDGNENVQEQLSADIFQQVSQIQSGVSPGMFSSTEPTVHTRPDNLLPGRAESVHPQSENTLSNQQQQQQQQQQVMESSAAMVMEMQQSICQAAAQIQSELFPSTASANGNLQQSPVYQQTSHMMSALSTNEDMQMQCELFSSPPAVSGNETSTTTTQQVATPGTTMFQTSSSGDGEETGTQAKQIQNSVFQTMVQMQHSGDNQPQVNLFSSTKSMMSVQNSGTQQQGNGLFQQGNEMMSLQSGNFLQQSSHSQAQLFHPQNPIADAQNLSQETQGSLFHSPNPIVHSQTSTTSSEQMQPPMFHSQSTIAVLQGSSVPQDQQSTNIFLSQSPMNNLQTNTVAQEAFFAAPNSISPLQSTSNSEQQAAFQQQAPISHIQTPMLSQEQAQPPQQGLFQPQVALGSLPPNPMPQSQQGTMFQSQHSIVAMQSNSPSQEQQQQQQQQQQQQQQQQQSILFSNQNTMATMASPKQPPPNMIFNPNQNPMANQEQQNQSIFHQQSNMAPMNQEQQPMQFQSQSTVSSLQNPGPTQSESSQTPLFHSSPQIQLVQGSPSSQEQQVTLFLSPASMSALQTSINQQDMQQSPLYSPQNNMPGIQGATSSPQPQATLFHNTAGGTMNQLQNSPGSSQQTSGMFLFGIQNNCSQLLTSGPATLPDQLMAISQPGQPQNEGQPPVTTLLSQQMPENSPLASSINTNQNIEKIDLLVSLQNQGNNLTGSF
UniProt Q04207: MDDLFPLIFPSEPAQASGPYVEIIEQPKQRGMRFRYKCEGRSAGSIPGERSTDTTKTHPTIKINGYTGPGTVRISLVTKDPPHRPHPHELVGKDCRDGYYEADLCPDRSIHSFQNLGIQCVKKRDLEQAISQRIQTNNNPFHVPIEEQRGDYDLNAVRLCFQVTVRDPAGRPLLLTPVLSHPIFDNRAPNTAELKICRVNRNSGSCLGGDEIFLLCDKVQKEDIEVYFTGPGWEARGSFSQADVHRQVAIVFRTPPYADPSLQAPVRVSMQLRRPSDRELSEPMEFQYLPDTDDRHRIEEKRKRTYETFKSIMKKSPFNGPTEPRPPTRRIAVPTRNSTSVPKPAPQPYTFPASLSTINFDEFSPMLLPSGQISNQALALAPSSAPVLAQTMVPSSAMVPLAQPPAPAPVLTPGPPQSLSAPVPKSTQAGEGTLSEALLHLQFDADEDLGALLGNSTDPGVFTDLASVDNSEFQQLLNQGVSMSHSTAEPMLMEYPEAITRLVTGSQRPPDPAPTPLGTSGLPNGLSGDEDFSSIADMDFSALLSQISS

These are yes or no findings as the source states them, for the method shown. Binding seen in cells or lysates may run through a third protein. Some entries that bind do so weakly or less than the wild type.

Test [1] addresses Tonicity-responsive enhancer binding protein (TonEBP), endogenous in MEF cells (mouse (endogenous in MEF)) (UniProt Q9WV30). Briefly: co-IP; MEF cell lysates (TonEBP+/+ or TonEBPΔ/Δ) immunoprecipitated with anti-p65 IgG or anti-TonEBP serum, immunoblotted for p300, TonEBP and p65; cells treated with vehicle or LPS (100 ng/ml), without or with cerulenin (10 μM). On the technique in general: A western blot detects proteins with antibodies after separation by electrophoresis.

In test [2] the target is Myc-p65 (UniProt Q04206). Briefly: co-IP; COS-7 cells co-transfected with Myc-p65 and Flag-TonEBP; lysates immunoprecipitated with anti-Myc IgG or anti-Flag IgG, immunoblotted for TonEBP, Myc or Flag.
The target in test [3] is Flag-TonEBP (human) (UniProt O94916). Described as above.
In test [4] the target is p65 subunit of NFκB, endogenous in MEF cells (mouse (endogenous in MEF)) (UniProt Q04207). Kind of test: co-IP; MEF cell lysates (TonEBP+/+ or TonEBPΔ/Δ) immunoprecipitated with anti-p65 IgG or anti-TonEBP serum, immunoblotted for p300, TonEBP and p65; cells treated with vehicle or LPS (100 ng/ml), without or with cerulenin (10 μM).

Take “p65 subunit of NFκB, endogenous in MEF cells (from UniProt Q04207 1-549)”: in test [1], the binding entry was “binds”. For the substance “Flag-TonEBP (from UniProt O94916 1-1531)”, the binding result in test [2] is “binds”. For the substance Myc-p65 (from UniProt Q04206 1-551), the binding entry in test [3] is “binds”. As for “Tonicity-responsive enhancer binding protein (TonEBP), endogenous in MEF cells (from UniProt Q9WV30 1-1534)”, the binding entry in test [4] is “binds”.
